PubChem BioAssay AID504764 | Drosophila RNAi Screening Center | 2011
In all, the deposit lists about 22,000 reagents; shown is a random part of those with a known target gene and a result. Over the whole deposit, 403 (1.9%) were called active. 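Unnormalised raw counts per well; ratio z-scores behind the hit calls and whether each hit raises or lowers signal are not deposited.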 A plus sign joins genes that one reagent is predicted to hit. The record does not give: the amount of reagent.

- Screen: 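Genome-wide screen for regulators of Notch-driven gene expression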 (primary screen)
- Cell system: Drosophila Kc167 cells
- Reagent: long dsRNA against Drosophila genes
- Time to read-out: about 5 days (4 days dsRNA, then 24 h after transfection)
- Conditions: transfection of constitutively active membrane-tethered Notch lacking the extracellular domain, read 24 h later
- Measurement: 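Firefly luciferase from an E(spl)m3 reporter with active Notch, plus control-promoter and uninduced reporter wells for normalisation; unnormalised counts, duplicate wells a and b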
- Reading the numbers: induced reporter light, run 1, well a and induced reporter light, run 1, well b: higher = more light from the Notch target reporter with active Notch; control promoter light, run 1, well a and control promoter light, run 1, well b: higher = more light from the viral control promoter (cell number, transfection, viability); uninduced reporter light, run 1, well a: higher = more light from the Notch target reporter without active Notch
- Active means: 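Hit if the duplicate-averaged log2 ratio of induced to control-promoter light gives a plate-wise z beyond ±2, or induced to uninduced beyond ±1.8; weak-control or discordant-duplicate wells dropped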
- Calls: active = modifier hit (raised or lowered Notch signal); inactive = not a hit

Depletion of Ube3a [DRSC10600] gave: induced reporter light, run 1, well a = 1.09e5; induced reporter light, run 1, well b = 87070; control promoter light, run 1, well a = 62020; control promoter light, run 1, well b = 24280; uninduced reporter light, run 1, well a = 6770; inactive.
For CG7907 [DRSC16339], the entry reads induced reporter light, run 1, well a = 2.18e5; induced reporter light, run 1, well b = 1.58e5; control promoter light, run 1, well a = 2.06e5; control promoter light, run 1, well b = 2.34e5; uninduced reporter light, run 1, well a = 11935; inactive.
Knock-down of CG31459 [DRSC13380] came out at: induced reporter light, run 1, well a = 65735; induced reporter light, run 1, well b = 61520; control promoter light, run 1, well a = 88165; control promoter light, run 1, well b = 72395; uninduced reporter light, run 1, well a = 10015; inactive.
Against CG8461 [DRSC16424] the deposit lists induced reporter light, run 1, well a = 1.50e5; induced reporter light, run 1, well b = 1.41e5; control promoter light, run 1, well a = 1.31e5; control promoter light, run 1, well b = 1.08e5; uninduced reporter light, run 1, well a = 11025; inactive.
CG6738 [DRSC16104] scored induced reporter light, run 1, well a = 1.74e5; induced reporter light, run 1, well b = 1.58e5; control promoter light, run 1, well a = 2.36e5; control promoter light, run 1, well b = 2.49e5; uninduced reporter light, run 1, well a = 15155; inactive.
Against Lip1 [DRSC03364], the values are induced reporter light, run 1, well a = 22432; induced reporter light, run 1, well b = 33415; control promoter light, run 1, well a = 17435; control promoter light, run 1, well b = 20220; uninduced reporter light, run 1, well a = 3485; inactive.
Against CG15145 [DRSC02446], the values are induced reporter light, run 1, well a = 1.35e5; induced reporter light, run 1, well b = 1.48e5; control promoter light, run 1, well a = 1.89e5; control promoter light, run 1, well b = 2.15e5; uninduced reporter light, run 1, well a = 12978; inactive.
alpha-Est7 [DRSC12619] scored induced reporter light, run 1, well a = 2.11e5; induced reporter light, run 1, well b = 1.49e5; control promoter light, run 1, well a = 3.27e5; control promoter light, run 1, well b = 2.87e5; uninduced reporter light, run 1, well a = 15275; inactive.
CG13081 [DRSC02185] gave induced reporter light, run 1, well a = 30915; induced reporter light, run 1, well b = 22255; control promoter light, run 1, well a = 32895; control promoter light, run 1, well b = 26660; uninduced reporter light, run 1, well a = 2255; inactive.
After knock-down of Cpr49Aa [DRSC07197] the results were induced reporter light, run 1, well a = 94320; induced reporter light, run 1, well b = 91570; control promoter light, run 1, well a = 1.21e5; control promoter light, run 1, well b = 1.12e5; uninduced reporter light, run 1, well a = 7980; inactive.
nuf [DRSC11379] showed induced reporter light, run 1, well a = 1.81e5; induced reporter light, run 1, well b = 1.56e5; control promoter light, run 1, well a = 2.40e5; control promoter light, run 1, well b = 2.16e5; uninduced reporter light, run 1, well a = 8645; inactive.
After knock-down of BNIP3 [DRSC11761], the record shows induced reporter light, run 1, well a = 1.62e5; induced reporter light, run 1, well b = 1.39e5; control promoter light, run 1, well a = 1.20e5; control promoter light, run 1, well b = 1.36e5; uninduced reporter light, run 1, well a = 8255; inactive.
CG9130 + CG9133 [DRSC08624] scored induced reporter light, run 1, well a = 1.02e5; induced reporter light, run 1, well b = 85620; control promoter light, run 1, well a = 1.05e5; control promoter light, run 1, well b = 1.61e5; uninduced reporter light, run 1, well a = 4970; inactive.
For CG9130 + CG9133 [DRSC08625] the deposit lists induced reporter light, run 1, well a = 81775; induced reporter light, run 1, well b = 87970; control promoter light, run 1, well a = 1.50e5; control promoter light, run 1, well b = 1.49e5; uninduced reporter light, run 1, well a = 6770; inactive.
Silencing of Obp47b + CG7741 [DRSC06330] resulted in: induced reporter light, run 1, well a = 76060; induced reporter light, run 1, well b = 85745; control promoter light, run 1, well a = 88805; control promoter light, run 1, well b = 96340; uninduced reporter light, run 1, well a = 8695; inactive.
CG1946 [DRSC06804] scored induced reporter light, run 1, well a = 1.65e5; induced reporter light, run 1, well b = 2.00e5; control promoter light, run 1, well a = 2.20e5; control promoter light, run 1, well b = 1.76e5; uninduced reporter light, run 1, well a = 15135; inactive.
Silencing of chif [DRSC03508] resulted in: induced reporter light, run 1, well a = 1.55e5; induced reporter light, run 1, well b = 1.62e5; control promoter light, run 1, well a = 1.57e5; control promoter light, run 1, well b = 1.53e5; uninduced reporter light, run 1, well a = 17695; active.
Silencing of CG4198 [DRSC18354] gave: induced reporter light, run 1, well a = 2.31e5; induced reporter light, run 1, well b = 1.87e5; control promoter light, run 1, well a = 2.18e5; control promoter light, run 1, well b = 1.88e5; uninduced reporter light, run 1, well a = 14590; inactive.
After knock-down of CG13002 [DRSC19521], the record shows induced reporter light, run 1, well a = 1.08e5; induced reporter light, run 1, well b = 1.02e5; control promoter light, run 1, well a = 1.48e5; control promoter light, run 1, well b = 1.32e5; uninduced reporter light, run 1, well a = 13375; inactive.
After knock-down of NAT1 [DRSC06854] the results were induced reporter light, run 1, well a = 45460; induced reporter light, run 1, well b = 46030; control promoter light, run 1, well a = 56175; control promoter light, run 1, well b = 55495; uninduced reporter light, run 1, well a = 4995; inactive.
Wdr33 [DRSC12162] gave induced reporter light, run 1, well a = 80620; induced reporter light, run 1, well b = 81840; control promoter light, run 1, well a = 40455; control promoter light, run 1, well b = 33170; uninduced reporter light, run 1, well a = 6750; inactive.
CG7772 [DRSC20056] scored induced reporter light, run 1, well a = 1.33e5; induced reporter light, run 1, well b = 1.13e5; control promoter light, run 1, well a = 1.29e5; control promoter light, run 1, well b = 64895; uninduced reporter light, run 1, well a = 9088; inactive.
Depletion of CG6013 [DRSC15947] gave: induced reporter light, run 1, well a = 1.65e5; induced reporter light, run 1, well b = 1.69e5; control promoter light, run 1, well a = 2.40e5; control promoter light, run 1, well b = 2.23e5; uninduced reporter light, run 1, well a = 16780; inactive.
For CG33255 (retired record) + hpRNA:CR32205 + hpRNA:CR32207 [DRSC09617], the entry reads induced reporter light, run 1, well a = 2.69e5; induced reporter light, run 1, well b = 2.08e5; control promoter light, run 1, well a = 2.48e5; control promoter light, run 1, well b = 3.11e5; uninduced reporter light, run 1, well a = 16810; inactive.
